Assay results taken from patent US8506984B2, “Therapeutic agent elution control process” (Cordis Corporation, priority 2006, dated 2013).

Test: Drug concentration in liquid formulations (liquid chromatography / HPLC)
Format: physicochemical
Conditions: 4 mg/ml formulation with PEG 200, ethanol
From the text: In accordance with exemplary embodiments of the present invention, a series of liquid formulations were developed for the local or regional delivery of water insoluble compounds such as sirolimus and its analogs, including CCI-779, ABT-578 and everolimus, through weeping balloons and catheter injection needles. […] These liquid formulations increase the apparent solubility of the pharmacologically active but water insoluble compounds by two to four orders of magnitude as compared to the solubility limits of the compounds in water. These liquid formulations rely on the use of a very small amount of organic solvents such as Ethanol (typically less than two percent) and a larger amount of safe amphiphilic (of or relating to a molecule having a polar, water soluble group attached to a non-polar, water insoluble […]) excipients such as polyethylene glycol (PEG 200, PEG 400) and vitamin E TPGS to enhance the solubility of the compounds. These liquid formulations of highly water insoluble compounds are stable and readily flowable at room temperature. […]
Table 8, shown below, summarizes the concentrations of the excipient, the co-solvents and the drug for four different liquid formulations in accordance with exemplary embodiments of the present invention. The concentrations of each constituent were determined by liquid chromatography and are presented as weight by volume figures. […]

sirolimus concentration relative to the solubility of sirolimus in water: four hundred to about one thousand
Structure (SMILES): CO[C@H]1C[C@@H]2CC[C@@H](C)[C@@](O)(O2)C(=O)C(=O)N2CCCC[C@H]2C(=O)O[C@H]([C@H](C)C[C@@H]2CC[C@@H](O)[C@H](OC)C2)CC(=O)[C@H](C)/C=C(\C)[C@@H](O)[C@@H](OC)C(=O)[C@H](C)C[C@H](C)/C=C/C=C/C=C/1C [Rapamycin, rapamycin]
